# Several values for one entry are separate records, joined by “and”; a condition that tells them apart may be missing. Equal entries are not always repeated. The list shows a part of the results. Single values are uncertain here, since repeats match poorly.
# Sequences of proteins named here, by UniProt entry; tags and fusion partners are left off.
# UniProt Q15717, whole entry: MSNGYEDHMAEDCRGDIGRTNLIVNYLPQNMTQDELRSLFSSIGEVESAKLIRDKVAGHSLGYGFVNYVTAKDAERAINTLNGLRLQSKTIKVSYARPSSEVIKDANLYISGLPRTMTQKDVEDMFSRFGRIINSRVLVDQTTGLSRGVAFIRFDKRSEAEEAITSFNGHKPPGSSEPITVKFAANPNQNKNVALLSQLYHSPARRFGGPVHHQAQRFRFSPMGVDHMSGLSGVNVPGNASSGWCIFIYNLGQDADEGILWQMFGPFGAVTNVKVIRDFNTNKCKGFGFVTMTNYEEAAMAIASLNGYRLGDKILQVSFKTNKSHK
# Target: HuR (ELAVL1) - TNFalpha ARE RNA complex (UniProt Q15717)
# Assay: AlphaScreen HuR-RNA complex signal Z-score relative to positive (Bi-TNF, DMSO) controls (Z-score (SD units of positive control)); higher = more complex signal
# Conditions: screen stage: primary screen; compound concentration: 25 nM
row,Compound,AlphaScreen HuR-RNA complex signal Z-score
1,CCCCCCCCCCCCCCCC[n+]1ccccc1,-6.13
2,c1ccc(/N=N/c2ccccc2)cc1,2.03
3,COP(=S)(OC)Oc1ccc(Sc2ccc(OP(=S)(OC)OC)cc2)cc1,0.412
4,O=P1(N(CCCl)CCCl)NCCCO1 (centres undefined),-2.6
5,c1ccc2c(c1)sc1ccccc12,-6.15
6,CN1C(=O)CCS(=O)(=O)C1c1ccc(Cl)cc1 (centres undefined),1.78
7,COc1cc([C@@H]2c3cc4c(cc3[C@H](OC(C)=O)[C@H]3COC(=O)[C@@H]23)OCO4)cc(OC)c1OC,0.0695
8,O=C(O)Cc1cnc[nH]1,1.88
9,COc1cc2c(c(OC)c1OC)-c1ccc(OC)c(=O)cc1[C@@H](NC(C)=O)CC2,-2.71
10,CC[C@@H](CO)NC(=O)[C@@H]1C=C2c3cccc4c3c(cn4C)C[C@H]2N(C)C1,0.486 and 0.567
11,N#C[C@H](O[C@@H]1O[C@H](CO[C@@H]2O[C@H](CO)[C@@H](O)[C@H](O)[C@H]2O)[C@@H](O)[C@H](O)[C@H]1O)c1ccccc1,0.807
12,CC1C=CC=CCCC=CC=CC=CC=CC(OC2OC(C)C(O)C(N)C2O)CC2OC(O)(CC(O)C(O)CCC(O)CC(O)CC(O)CC(=O)OC(C)C(C)C1O)CC(O)C2C(=O)O (centres undefined),10.1
13,C[C@@H]1C[C@H](O)[C@@]2(O)[C@]13CC(=O)OC[C@@]2(C)[C@@](C)(O)C(=O)C3,3.2
14,CC(=O)O[C@H]1CC[C@@]2(C)[C@H](CC[C@@H]3[C@@H]2CC[C@]2(C)[C@@H](C4=CC(=O)OC4)[C@@H](OC(C)=O)C[C@]32O)C1,2.32
15,CC[N+]1(C)CCCC(OC(=O)C(O)(c2ccccc2)c2ccccc2)C1 (centres undefined),2.35
16,CC1=C2C(=CO[C@H](C)[C@H]2C)C(O)=C(C(=O)O)C1=O,1.16
17,CC(C)Nc1nc(Cl)nc(NC(C)C)n1,1.25
18,N#Cc1c(Cl)c(Cl)c(Cl)c(C#N)c1Cl,0.376
19,N[C@H](CO)Cc1ccccc1,2.22
20,Cc1[nH]c2ccccc2c1CN(C)C,1.77
21,Cc1nccc2c1[nH]c1cc(O)ccc12,-0.107
22,CCCCCCC(C)OC(=O)COc1ccc(Cl)cc1Cl (centres undefined),0.101

# Quoted from the listing.
# In AlphaScreen HuR-RNA complex signal Z-score, CC(=O)O[C@H]1CC[C@@]2(C)[C@H](CC[C@@H]3[C@@H]2CC[C@]2(C)[C@@H](C4=CC(=O)OC4)[C@@H](OC(C)=O)C[C@]32O)C1 has 2.32
# In AlphaScreen HuR-RNA complex signal Z-score, N#Cc1c(Cl)c(Cl)c(Cl)c(C#N)c1Cl has 0.376
# In AlphaScreen HuR-RNA complex signal Z-score, CC[N+]1(C)CCCC(OC(=O)C(O)(c2ccccc2)c2ccccc2)C1 (centres undefined) has 2.35

# Continued:

row,Compound,AlphaScreen HuR-RNA complex signal Z-score
1,CC(C)c1cc2c(c(O)c1O)[C@@]1(C(=O)O)CCCC(C)(C)[C@@H]1CC2,0.572
2,O=C(O)CC[N+](=O)[O-] [BOVINOCIDIN (3-nitropropionic acid)],-0.473
3,Oc1ccc2c3c1O[C@H]1[C@@H](O)CC[C@@]4(O)[C@@H](C2)N(CC2CCC2)CC[C@]314,0.582
4,C/C=C/c1ccc2c(c1)OCO2,1.18
5,CN1CCc2cc3c(cc2[C@H]1[C@@H]1OC(=O)c2c1ccc1c2OCO1)OCO3,-1.25
6,CN1C[C@H](CNC(=O)OCc2ccccc2)C[C@@H]2c3cccc4c3c(cn4C)C[C@H]21,-1.48
7,CC(N)C(O)c1ccccc1 (centres undefined),7.24
8,"CC1(C)C(=O)[C@@H]2O[C@@H]2[C@@]2(C)C1C[C@@H](O)[C@]1(C)C2CC[C@@]2(C)[C@H](c3ccoc3)OC(=O)C3OC321 (stereo partly drawn) [1,2alpha-EPOXYDEACETOXYDIHYDROGEDUNIN]",1.39
9,CC1=CCCC2C1(C)CCC(C)C2(C)CC/C(C)=C/Cn1c[n+](C)c2c(N)ncnc21 (centres undefined) [AGELASINE (stereochemistry of diterpene unknown)],0.15
10,O=C(CCCN1CCC2(CC1)C(=O)NCN2c1ccccc1)c1ccc(F)cc1,1.31
11,O=[N+]([O-])O[C@H]1CO[C@H]2[C@@H]1OC[C@H]2O[N+](=O)[O-],3.95
12,O=c1cccc2n1C[C@@H]1CNC[C@H]2C1,0.536
13,COc1cc2ccc(=O)oc2c2ccoc12,3.2
14,NCC1(CC(=O)O)CCCCC1,0.814
15,C=CCc1ccc(OC)cc1,2.69
16,CC[C@@H](C)C(=O)O[C@H]1[C@H](O)[C@H]2[C@@H](CN3C[C@@H](C)CC[C@H]3[C@@]2(C)O)[C@@H]2C[C@]34O[C@]5(O)[C@@H](OC(=O)[C@@](C)(O)CC)CC[C@@]3(C)[C@@H]5[C@@H](OC(C)=O)[C@@H](OC(C)=O)[C@H]4[C@@]21O,-2.26
17,O=c1cccc2n1CC1CC2CN2CCCC[C@@H]12.[O-][Cl+3]([O-])([O-])O (some centres undefined),2.82
18,CCOC(=O)c1cncn1[C@H](C)c1ccccc1,3.4
19,ClC1=C(Cl)C2(Cl)C3C4CC(C5OC45)C3C1(Cl)C2(Cl)Cl (centres undefined),2.22
20,C[N+]12CC[C@@]34c5ccccc5N5C(=O)C[C@@H]6OCC=C(C1)[C@H](C[C@@H]32)[C@@H]6[C@H]54 (some centres undefined),-0.975
21,COc1ccc2c(c1OC)C(=O)O[C@@H]2[C@H]1c2cc3c(cc2CCN1C)OCO3,-0.175
22,O=C(NC(=O)c1c(F)cccc1F)Nc1ccc(Cl)cc1,4.62
